Assay results: paper PMC5661649, “G-protein-coupled receptors mediate 14-3-3 signal transduction” (Signal Transduction and Targeted Therapy, 2016)

Tested on: Raf-1/14-3-3 interaction
Test: Kinase inhibition of FBS-stimulated Raf-1/14-3-3 interaction in U2OS cells
Format: cell-based
Conditions: Figure 4d
Method: Cells were cultured overnight.
The LinkLight cells were cultured in a white 384-well plate overnight. The culture medium was then replaced with serum-free DMEM. Serial dilutions of kinase inhibitors were added to cells for 15 min, followed by agonist stimulation for 240 min and then by the luciferase assay as described above. For Raf-1/14-3-3 kinase inhibition assays, cells were preincubated with a kinase inhibitor (or two inhibitors at equal concentrations) for 15 min, followed by stimulation with 7.5% FBS for 180 min and then by the luciferase assay as described above.

SMILES: CN[C@@H]1C[C@H]2O[C@@](C)([C@@H]1OC)n1c3ccccc3c3c4c(c5c6ccccc6n2c5c31)C(=O)NC4 [staurosporine]
- inhibition of FBS-stimulated Raf-1/14-3-3 interaction signals (7.5% FBS stimulation): blocked
- inhibition of FBS-stimulated Raf-1/14-3-3 interaction signals at high concentrations (high concentrations): suppressed the Raf-1/14-3-3 signals below the baseline signal
